Data published in article PMC7667687.
These are yes or no findings as the source states them, for the method shown. In cells and extracts the contact can be indirect. These calls come from enrichment with a bait or labelling near it, and not all partners need be listed.

By UniProt entry, the sequences of proteins in these tests, tags left out. Residues count along the entry.
UniProt Q9NZQ7, residues 19-290: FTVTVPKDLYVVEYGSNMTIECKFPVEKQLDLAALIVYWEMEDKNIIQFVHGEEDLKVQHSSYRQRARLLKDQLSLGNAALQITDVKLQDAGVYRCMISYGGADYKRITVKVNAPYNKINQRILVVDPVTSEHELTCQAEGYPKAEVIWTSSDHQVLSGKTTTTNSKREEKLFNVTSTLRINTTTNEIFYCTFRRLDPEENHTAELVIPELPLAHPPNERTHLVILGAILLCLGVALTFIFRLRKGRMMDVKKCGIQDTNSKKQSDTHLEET

Molecular target: programmed cell death ligand 1 (PD-L1) (human (endogenous in SGC-7901)) (UniProt Q9NZQ7)
Test: affinity purification with mass spectrometry; IP with anti-PD-L1 antibody (IgG as control) from SGC-7901 RIPA lysate, protein A/G PLUS-Agarose, 4°C; coprecipitated 175 kDa protein band analysed by mass spectrometry

B1: CCCTC-binding factor (CTCF) (protein, UniProt P49711 1-727)
chain: MEGDAVEAIVEESETFIKGKERKTYQRRREGGQEEDACHLPQNQTDGGEVVQDVNSSVQMVMMEQLDPTLLQMKTEVMEGTVAPEAEAAVDDTQIITLQVVNMEEQPINIGELQLVQVPVPVTVPVATTSVEELQGAYENEVSKEGLAESEPMICHTLPLPEGFQVVKVGANGEVETLEQGELPPQEDPSWQKDPDYQPPAKKTKKTKKSKLRYTEEGKDVDVSVYDFEEEQQEGLLSEVNAEKVVGNMKPPKPTKIKKKGVKKTFQCELCSYTCPRRSNLDRHMKSHTDERPHKCHLCGRAFRTVTLLRNHLNTHTGTRPHKCPDCDMAFVTSGELVRHRRYKHTHEKPFKCSMCDYASVEVSKLKRHIRSHTGERPFQCSLCSYASRDTYKLKRHMRTHSGEKPYECYICHARFTQSGTMKMHILQKHTENVAKFHCPHCDTVIARKSDLGVHLRKQHSYIEQGKKCRYCDAVFHERYALIQHQKSHKNEKRFKCDQCDYACRQERHMIMHKRTHTGEKPYACSHCDKTFRQKQLLDMHFKRYHDPNFVPAAFVCSKCGKTFTRRNTMARHADNCAGPDGVEGENGGETKKSKRGRKRKMRSKKEDSSDSENAEPDLDDNEDEEEPAVEIEPEPEPQPVTPAPPPAKKRRGRPPGRTNQPKQNQPTAIIQVEDQNTGAIENIIVEVKKEPDAEPAEGEEEEAQPAATDAPNGDLTPEMILSMMDR
binding: binds
